# Results taken from PMC1977984 (British Journal of Cancer, 1992).
# How the values were obtained:
# Assay in all cases: cells
# [1] = system: S1 cell line (SW-1573); conditions: Homo sapiens, SW1573, 96 h, read-out: IC50 tamoxifen
# Excerpt: (§1) Br. J. Cancer (1992), 66, 833-839 ? […] Clinical effects and in vitro assessment in p-glycoprotein expressing cell lines N.S.A. Stuart', P. Philip', A.L. Harris', K. Tonkin', S. Houlbrook2, J. Kirk2, E.A. Lien3 & J. Carmichael' 'ICRF Clinical Oncology Unit, Churchill Hospital, Oxford OX3 7LJ; 2MRC Radiobiology Unit, Chilton, Didcot, Oxon; 3Department of Pharmacology and Toxicology, University of Bergen, Bergen, Norway. […] Cytotoxic drug resistance frequently affects a wide range of cytotoxic agents. It is commonly inherent, although it may also be acquired after initial response to cytotoxic drugs. Cell lines exposed in vitro to one cytotoxic drug may also become resistant to a range of structurally and functionally diverse agents. This multidrug resistant (MDR) phenotype is associ- ated with the presence of a 170 kd membrane glycoprotein, the P-glycoprotein (Pgp) (Juliano et al., 1976; Kartner et al., 1983; Riordan et al., 1985) which acts as an energy depen- dent efflux pump (Skovsgaard, 1978). […] Unfor- tunately many cause unacceptable toxicity at levels below those needed to modulate resistance and have therefore not been useful clinically (Ozols et al., 1987). Some encouraging results have however been reported in lymphoid malignan- cies. […] It is widely used in the treatment of breast cancer at doses of 20-40mgday-' and at such doses produces serum levels around 0.5 JiM (Adam et al., 1980; Fabian et al., 1980; Lien et al., 1989). […] Etoposide (VP16-213, Vepesid) is an epipodophyllotoxin derived cytotoxic drug which interferes with the action of the nuclear enzyme topoisomerase II producing lethal single and double stranded DNA breaks (Chen et al., 1984). It has activity in a number of solid tumours and resistance to it is part of the typical MDR phenotype (Endicott et al., 1989). […] The study therefore included patients with a range of relapsed and chemoresistant tumours. […] Patients had ECOG performance scores of 2 or better, had normal renal and hepatic function and had normal peripheral blood counts. […] Correspondence: N.S. Stuart. Received 13 March 1992; and in revised form 8 July 1992. 'PI Macmillan Press Ltd., 1992 Br. J. Cancer (1992), 66, 833-839 834 N.S.A. STUART et al. No formal compliance check was conducted but patients were asked specifically whether they had difficulties taking the correct number of tablets. Oral etoposide was given at a dose of 300mgday-' (150mg two times day-') for the first course. Patients who remained myelosuppressed on day 21 had the dose of etoposide reduced to 200 mg day-' for subse- quent courses. In those who had no significant myelosuppres- sion the dose of etoposide was increased to 400 mg day-'. […] Blood samples were centrifuged and the serum removed and stored at -20?C prior to measurement. […] The methods used have been published previously (Lien et al., 1989; 1987). […] The drugs were detected by being converted to fluorophors by subjecting the effluent of the column to ultra-violet light while passing through a quartz tube. The identity of the analyses was confirmed by liquid chromatography/mass spec- trometry using an on-line mass spectrometer connected to the analytical column (Lien et al., 1988). Serum levels in different patient populations were compared using the Mann-Whitney U-test. Cells and culture conditions Three pairs of cell lines were assessed. Each comprised a wild-type parental cell line and a P-glycoprotein expressing daughter line. […]
# [2] = system: S1/1.1 cell line; conditions: Homo sapiens, 96 h, read-out: IC50 tamoxifen
# Excerpt: as §1
# [3] = system: CHO-KI adrr cell line; conditions: Cricetulus griseus, 96 h, read-out: IC50 tamoxifen
# Excerpt: as §1
# [4] = system: MCF-7 adrr cell line; conditions: Homo sapiens, MCF7, 96 h, read-out: IC50 tamoxifen
# Excerpt: as §1
# [5] = system: MCF-7 wt cell line; conditions: Homo sapiens, MCF7, 96 h, read-out: IC50 tamoxifen
# Excerpt: as §1
compound,measurement,setting,value
CC/C(=C(\c1ccccc1)c1ccc(OCCN(C)C)cc1)c1ccccc1 [tamoxifen],IC50,[1],12 µM
same,IC50,[2],12 µM
same,IC50,[3],7.8 µM
same,IC50,[4],20 µM
same,IC50,[5],8.3 µM
